PubChem BioAssay AID1053208, Peter MacCallum Cancer Centre, 2014
The deposit covers about 17,000 reagents; shown is an unselected part. Of all reagents, 788 (4.7%) got an active call. 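Calls rest on z-score classes alone; an extra cut-off of viability at most 70% of control was not applied to them.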 Reagent sequences are not shown.

- Test: 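Synthetic lethal interactions between gene loss and doxorubicin in osteosarcoma cells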 (primary screen)
- Cells: mouse osteosarcoma cells, early-passage culture from an engineered mouse model of fibroblastic bone tumour
- Reagents: siRNA pool against mouse genes, 40 nM
- Duration: about 120 h (48 h before drug, then 72 h with drug)
- Challenge: doxorubicin 100 nM for 72 h, roughly 30-40% inhibitory dose
- Read-out: 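Luminescent ATP signal taken as viability with or without 100 nM doxorubicin for 72 h; mean of two wells set against non-targeting siRNA and turned into robust z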
- Direction: viability z-score with doxorubicin and doxorubicin viability vs non-targeting: higher = more viable cells under doxorubicin; viability z-score without drug: higher = more viable cells with knock-down alone; z-score of drug to no-drug ratio: higher = less drug sensitisation by knock-down
- Call rule: 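a pool counts as active when its viability z-score with doxorubicin is -2 or below and its z-score without drug lies between -2 and 2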

no.	gene knocked down	combined z-score class	viability z-score with doxorubicin	viability z-score without drug	z-score of drug to no-drug ratio	doxorubicin viability vs non-targeting	Outcome
1	Nhlrc1	high cell count with and without drug	2.59	2.87	0.67	1.17	inactive
2	Kbtbd3	no change with or without drug	0	0.17	0	0.94	inactive
3	Map3k12	no change with or without drug	1.12	-0.17	1.46	1.04	inactive
4	Tbca	no change with or without drug	-0.22	0	-0.11	0.92	inactive
5	Prss2	no change with or without drug	0.11	1.35	-0.67	0.95	inactive
6	Osbp	no change with or without drug	1.91	1.85	0.79	1.11	inactive
7	Flrt3	high cell count with doxorubicin only	2.02	1.52	1.12	1.12	inactive
8	Gbx1	no change with or without drug	0.22	0	0.34	0.96	inactive
9	Lamp1	no change with or without drug	-1.57	0.17	-1.69	0.8	inactive
10	Bmal1	no change with or without drug	-0.45	1.18	-1.12	0.9	inactive
11	Gimap4	no change with or without drug	-0.45	-1.18	0.45	0.9	inactive
12	Il12rb1	high cell count with doxorubicin only	2.25	1.35	1.46	1.14	inactive
13	Adora1	no change with or without drug	0.9	0.17	0.9	1.02	inactive
14	Ncstn	low cell count with doxorubicin only	-2.25	-1.69	-1.24	0.74	active
15	Odf2	no change with or without drug	0.22	0.84	-0.22	0.96	inactive
16	Or10j3b	no change with or without drug	-0.9	0.17	-0.9	0.86	inactive
17	Rcsd1	no change with or without drug	-0.22	1.85	-1.24	0.92	inactive
18	Rgma	no change with or without drug	-1.57	-0.51	-1.24	0.8	inactive
19	Mbd2	no change with or without drug	0.11	-0.84	0.9	0.95	inactive
20	Fate1	no change with or without drug	-0.11	-0.67	0.45	0.93	inactive
21	Vmn1r195	no change with or without drug	-0.79	-0.84	-0.11	0.87	inactive
22	Fam72a	no change with or without drug	-0.45	0.67	-0.79	0.9	inactive
23	Rangap1	no change with or without drug	1.12	0.17	1.12	1.04	inactive
24	Dym	no change with or without drug	-0.67	1.52	-1.46	0.88	inactive
25	Ccne2	no change with or without drug	-0.67	0.17	-0.67	0.88	inactive
26	Mcph1	no change with or without drug	0.9	-0.51	1.46	1.02	inactive
27	Rps15a	low cell count with and without drug	-8.43	-7.93	-6.52	0.19	inactive
28	Fank1	no change with or without drug	-0.34	0.17	-0.34	0.91	inactive
29	Bmp1	no change with or without drug	-1.12	0.17	-1.12	0.84	inactive
30	Or4a69	no change with or without drug	0.79	-1.35	2.02	1.01	inactive
31	Trpm8	no change with or without drug	0.22	0.51	0	0.96	inactive
32	Clmb	no change with or without drug	-1.01	1.18	-1.69	0.85	inactive
33	Sh2d3c	no change with or without drug	0.45	0.34	0.34	0.98	inactive
34	Mcpt2	no change with or without drug	1.12	-0.84	2.02	1.04	inactive

4 consecutive entries from above, quoted:
no.	gene knocked down	combined z-score class	viability z-score with doxorubicin	viability z-score without drug	z-score of drug to no-drug ratio	doxorubicin viability vs non-targeting	Outcome
18	Rgma	no change with or without drug	-1.57	-0.51	-1.24	0.8	inactive
19	Mbd2	no change with or without drug	0.11	-0.84	0.9	0.95	inactive
20	Fate1	no change with or without drug	-0.11	-0.67	0.45	0.93	inactive
21	Vmn1r195	no change with or without drug	-0.79	-0.84	-0.11	0.87	inactive
